Results are given in words; binding and its absence hold for the method and conditions named. Binding seen in cells or lysates may run through a third protein. Some results given as binding are weak or reduced against the parent protein; the word gives no strength.
B1: HCFC2 (protein, UniProt Q9Y5Z7 1-792)
chain: MAAPSLLNWRRVSSFTGPVPRARHGHRAVAIRELMIIFGGGNEGIADELHVYNTATNQWFLPAVRGDIPPGCAAHGFVCDGTRILVFGGMVEYGRYSNELYELQASRWLWKKVKPHPPPSGLPPCPRLGHSFSLYGNKCYLFGGLANESEDSNNNVPRYLNDFYELELQHGSGVVGWSIPVTKGVVPSPRESHTAVIYCKKDSGSPKMYVFGGMCGARLDDLWQLDLETMSWSKPETKGTVPLPRSLHTASVIGNKMYIFGGWVPHKGENTETSPHDCEWRCTSSFSYLNLDTTEWTTLVSDSQEDKKNSRPRPRAGHCAVAIGTRLYFWSGRDGYKKALNSQVCCKDLWYLDTEKPPAPSQVQLIKATTNSFHVKWDEVSTVEGYLLQLSTDLPYQAASSDSSAAPNMQGVRMDPHRQGSNNIVPNSINDTINSTKTEQPATKETSMKNKPDFKALTDSNAILYPSLASNASNHNSHVVDMLRKNEGPHTSANVGVLSSCLDVRTVIPETSVSSTVSSTQTMVTQQTIKTESSSTNGAVVKDETSLTTFSTKSEVDETYALPATKISRVETHATATPFSKETPSNPVATVKAGERQWCDVGIFKNNTALVSQFYLLPKGKQSISKVGNADVPDYSLLKKQDLVPGTGYRFRVAAINGCGIGPFSKISEFKTCIPGFPGAPSAVRISKNVEGIHLSWEPPTSPSGNILEYSAYLAIRTAQIQDNPSQLVFMRIYCGLKTSCIVTAGQLANAHIDYTSRPAIVFRISAKNEKGYGPATQVRWLQGNNKKAPLN
B2: DEK (protein, UniProt P35659 1-375)
chain: MSASAPAAEGEGTPTQPASEKEPEMPGPREESEEEEDEDDEEEEEEEKEKSLIVEGKREKKKVERLTMQVSSLQREPFTIAQGKGQKLCEIERIHFFLSKKKTDELRNLHKLLYNRPGTVSSLKKNVGQFSGFPFEKGSVQYKKKEEMLKKFRNAMLKSICEVLDLERSGVNSELVKRILNFLMHPKPSGKPLPKSKKTCSKGSKKERNSSGMARKAKRTKCPEILSDESSSDEDEKKNKEESSDDEDKESEEEPPKKTAKREKPKQKATSKSKKSVKSANVKKADSSTTKKNQNSSKKESESEDSSDDEPLIKKLKKPPTDEELKETIKKLLASANLEEVTMKQICKKVYENYPTYDLTERKDFIKTTVKELIS

The chains behind the UniProt entries cited, without tags or fusion partners. Where a name states a change or a piece, a line headed by the entry shows the natural chain unless it says otherwise. Residues count along the entry.
UniProt Q9BTC0: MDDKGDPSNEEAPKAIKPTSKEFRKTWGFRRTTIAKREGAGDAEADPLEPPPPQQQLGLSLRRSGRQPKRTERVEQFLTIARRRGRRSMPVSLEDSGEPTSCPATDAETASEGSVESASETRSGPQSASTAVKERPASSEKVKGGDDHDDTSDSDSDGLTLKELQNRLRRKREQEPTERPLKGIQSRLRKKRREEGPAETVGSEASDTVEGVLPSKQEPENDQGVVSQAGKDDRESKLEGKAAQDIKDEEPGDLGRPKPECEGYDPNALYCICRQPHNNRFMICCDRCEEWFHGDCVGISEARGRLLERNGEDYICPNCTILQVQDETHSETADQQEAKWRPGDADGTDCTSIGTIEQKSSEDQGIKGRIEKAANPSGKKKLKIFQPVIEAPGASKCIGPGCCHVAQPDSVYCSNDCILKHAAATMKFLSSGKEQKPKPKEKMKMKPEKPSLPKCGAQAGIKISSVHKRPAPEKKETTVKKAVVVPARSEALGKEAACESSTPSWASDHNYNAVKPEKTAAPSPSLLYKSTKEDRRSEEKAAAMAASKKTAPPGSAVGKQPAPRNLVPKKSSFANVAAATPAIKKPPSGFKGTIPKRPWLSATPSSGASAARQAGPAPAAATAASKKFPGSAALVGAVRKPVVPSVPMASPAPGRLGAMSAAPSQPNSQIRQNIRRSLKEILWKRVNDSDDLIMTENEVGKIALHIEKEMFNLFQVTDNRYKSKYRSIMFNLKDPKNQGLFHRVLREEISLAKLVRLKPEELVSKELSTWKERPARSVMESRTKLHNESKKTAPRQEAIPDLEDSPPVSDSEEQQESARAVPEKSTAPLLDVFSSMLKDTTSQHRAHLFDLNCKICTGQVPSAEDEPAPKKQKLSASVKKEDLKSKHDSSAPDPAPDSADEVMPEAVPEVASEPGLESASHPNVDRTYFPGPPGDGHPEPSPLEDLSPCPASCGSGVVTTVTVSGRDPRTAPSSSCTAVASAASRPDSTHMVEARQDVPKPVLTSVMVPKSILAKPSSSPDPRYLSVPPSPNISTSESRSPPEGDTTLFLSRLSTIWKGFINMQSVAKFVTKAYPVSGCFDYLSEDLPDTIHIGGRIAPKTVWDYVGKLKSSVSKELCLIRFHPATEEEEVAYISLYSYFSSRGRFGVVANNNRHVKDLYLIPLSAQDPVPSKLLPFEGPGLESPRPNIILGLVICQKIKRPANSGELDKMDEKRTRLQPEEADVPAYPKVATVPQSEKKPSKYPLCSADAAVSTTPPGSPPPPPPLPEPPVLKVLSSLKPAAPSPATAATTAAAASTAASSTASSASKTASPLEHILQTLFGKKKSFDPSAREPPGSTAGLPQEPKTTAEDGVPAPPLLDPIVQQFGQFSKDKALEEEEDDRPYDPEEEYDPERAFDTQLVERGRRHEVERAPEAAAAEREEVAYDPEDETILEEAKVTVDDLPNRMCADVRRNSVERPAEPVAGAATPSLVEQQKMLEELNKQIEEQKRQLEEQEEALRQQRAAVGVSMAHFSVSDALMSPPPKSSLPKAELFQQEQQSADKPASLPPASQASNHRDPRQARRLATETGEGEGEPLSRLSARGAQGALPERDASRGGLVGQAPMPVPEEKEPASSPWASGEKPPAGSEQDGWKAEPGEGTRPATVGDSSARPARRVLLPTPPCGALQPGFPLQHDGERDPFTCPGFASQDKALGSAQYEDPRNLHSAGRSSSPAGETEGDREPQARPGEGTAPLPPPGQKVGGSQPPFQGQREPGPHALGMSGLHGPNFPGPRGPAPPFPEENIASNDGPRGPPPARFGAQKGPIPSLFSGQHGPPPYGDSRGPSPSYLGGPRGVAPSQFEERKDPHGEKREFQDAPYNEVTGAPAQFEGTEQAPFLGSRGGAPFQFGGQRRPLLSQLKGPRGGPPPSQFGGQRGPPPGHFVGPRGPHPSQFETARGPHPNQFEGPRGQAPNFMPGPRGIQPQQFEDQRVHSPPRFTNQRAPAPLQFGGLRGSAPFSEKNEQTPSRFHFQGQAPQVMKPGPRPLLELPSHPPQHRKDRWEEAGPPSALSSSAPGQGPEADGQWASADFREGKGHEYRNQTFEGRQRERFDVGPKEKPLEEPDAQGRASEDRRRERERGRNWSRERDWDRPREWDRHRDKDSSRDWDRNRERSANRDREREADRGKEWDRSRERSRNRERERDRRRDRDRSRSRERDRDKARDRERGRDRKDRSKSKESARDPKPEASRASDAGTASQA
2xHA DIDO3 without the IDR (C-terminal truncation): residues 1-2084 of Q9BTC0
UniProt P09874: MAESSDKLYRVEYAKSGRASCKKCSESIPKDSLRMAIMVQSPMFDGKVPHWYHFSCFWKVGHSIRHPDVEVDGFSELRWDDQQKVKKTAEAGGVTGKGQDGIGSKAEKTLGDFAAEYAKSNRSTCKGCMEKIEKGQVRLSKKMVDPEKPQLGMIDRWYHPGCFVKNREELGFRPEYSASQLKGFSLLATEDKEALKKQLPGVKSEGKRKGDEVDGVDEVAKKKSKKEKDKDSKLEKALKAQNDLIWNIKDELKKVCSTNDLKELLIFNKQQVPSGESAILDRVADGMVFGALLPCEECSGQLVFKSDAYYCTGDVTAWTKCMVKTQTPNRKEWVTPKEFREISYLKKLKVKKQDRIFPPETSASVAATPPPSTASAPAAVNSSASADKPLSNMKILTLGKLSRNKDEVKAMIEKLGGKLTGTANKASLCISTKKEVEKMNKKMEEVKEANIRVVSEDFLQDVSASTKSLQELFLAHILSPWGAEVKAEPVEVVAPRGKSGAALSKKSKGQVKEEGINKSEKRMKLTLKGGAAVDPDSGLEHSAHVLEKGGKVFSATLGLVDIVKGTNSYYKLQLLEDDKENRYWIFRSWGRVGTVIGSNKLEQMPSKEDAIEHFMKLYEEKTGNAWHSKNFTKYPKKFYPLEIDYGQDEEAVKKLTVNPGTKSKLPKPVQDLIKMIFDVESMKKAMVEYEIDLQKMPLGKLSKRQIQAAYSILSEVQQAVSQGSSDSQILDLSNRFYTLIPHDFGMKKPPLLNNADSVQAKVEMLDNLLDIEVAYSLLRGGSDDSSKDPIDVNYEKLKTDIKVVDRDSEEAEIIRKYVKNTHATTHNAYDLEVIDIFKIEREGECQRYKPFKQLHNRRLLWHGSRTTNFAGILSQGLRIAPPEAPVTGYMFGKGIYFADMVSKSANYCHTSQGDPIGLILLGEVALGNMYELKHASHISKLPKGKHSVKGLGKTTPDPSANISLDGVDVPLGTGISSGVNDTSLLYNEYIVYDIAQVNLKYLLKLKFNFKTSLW
UniProt Q92576: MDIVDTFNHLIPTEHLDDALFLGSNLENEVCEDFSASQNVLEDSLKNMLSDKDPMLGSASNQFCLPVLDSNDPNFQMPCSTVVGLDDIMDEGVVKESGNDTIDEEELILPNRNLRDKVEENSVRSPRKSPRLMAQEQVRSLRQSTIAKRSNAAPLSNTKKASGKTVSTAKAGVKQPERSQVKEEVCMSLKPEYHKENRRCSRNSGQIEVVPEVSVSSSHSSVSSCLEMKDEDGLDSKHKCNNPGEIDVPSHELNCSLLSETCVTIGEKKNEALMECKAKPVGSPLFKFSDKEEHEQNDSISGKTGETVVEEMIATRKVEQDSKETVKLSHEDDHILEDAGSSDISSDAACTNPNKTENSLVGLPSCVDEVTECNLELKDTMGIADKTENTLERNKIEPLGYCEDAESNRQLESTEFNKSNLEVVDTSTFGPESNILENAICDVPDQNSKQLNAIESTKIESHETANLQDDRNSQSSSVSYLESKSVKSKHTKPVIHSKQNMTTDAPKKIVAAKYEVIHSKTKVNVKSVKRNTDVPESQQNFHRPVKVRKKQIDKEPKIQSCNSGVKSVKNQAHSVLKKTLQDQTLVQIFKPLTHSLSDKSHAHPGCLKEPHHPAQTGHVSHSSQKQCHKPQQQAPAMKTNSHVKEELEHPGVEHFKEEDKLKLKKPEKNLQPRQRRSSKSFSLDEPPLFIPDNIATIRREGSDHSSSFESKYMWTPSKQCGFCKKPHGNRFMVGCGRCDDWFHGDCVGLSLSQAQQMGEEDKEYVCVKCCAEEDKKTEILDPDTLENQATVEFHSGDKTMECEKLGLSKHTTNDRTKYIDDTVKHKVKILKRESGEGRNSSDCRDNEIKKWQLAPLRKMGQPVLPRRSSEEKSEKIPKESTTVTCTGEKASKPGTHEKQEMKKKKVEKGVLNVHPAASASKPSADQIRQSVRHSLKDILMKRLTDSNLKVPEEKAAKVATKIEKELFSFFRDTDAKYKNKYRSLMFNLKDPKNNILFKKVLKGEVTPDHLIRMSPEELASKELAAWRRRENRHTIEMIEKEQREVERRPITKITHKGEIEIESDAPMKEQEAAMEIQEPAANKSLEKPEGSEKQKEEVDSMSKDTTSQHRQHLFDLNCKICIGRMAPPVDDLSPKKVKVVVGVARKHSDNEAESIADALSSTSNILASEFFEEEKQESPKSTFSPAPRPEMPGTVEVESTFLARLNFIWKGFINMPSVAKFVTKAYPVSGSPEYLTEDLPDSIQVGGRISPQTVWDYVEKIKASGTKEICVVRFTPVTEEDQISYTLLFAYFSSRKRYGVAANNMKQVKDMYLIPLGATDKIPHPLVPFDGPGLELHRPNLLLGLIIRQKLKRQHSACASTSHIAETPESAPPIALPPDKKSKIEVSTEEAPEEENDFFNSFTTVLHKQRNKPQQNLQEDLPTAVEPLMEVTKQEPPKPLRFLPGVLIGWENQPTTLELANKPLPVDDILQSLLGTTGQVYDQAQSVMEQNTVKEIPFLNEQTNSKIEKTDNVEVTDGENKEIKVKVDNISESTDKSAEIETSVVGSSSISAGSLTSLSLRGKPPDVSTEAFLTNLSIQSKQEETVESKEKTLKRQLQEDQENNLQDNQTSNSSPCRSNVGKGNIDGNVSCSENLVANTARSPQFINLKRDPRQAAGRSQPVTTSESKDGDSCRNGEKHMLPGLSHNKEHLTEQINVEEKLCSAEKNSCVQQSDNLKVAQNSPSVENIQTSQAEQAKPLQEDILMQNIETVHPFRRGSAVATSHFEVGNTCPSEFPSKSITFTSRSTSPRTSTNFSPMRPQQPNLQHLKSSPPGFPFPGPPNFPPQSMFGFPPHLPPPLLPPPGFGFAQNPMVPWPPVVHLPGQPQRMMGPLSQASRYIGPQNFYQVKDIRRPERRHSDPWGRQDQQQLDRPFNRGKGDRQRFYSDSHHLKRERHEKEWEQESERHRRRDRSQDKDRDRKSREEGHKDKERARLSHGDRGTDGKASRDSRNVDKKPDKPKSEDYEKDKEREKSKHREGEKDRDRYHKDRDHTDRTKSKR
UniProt O75367: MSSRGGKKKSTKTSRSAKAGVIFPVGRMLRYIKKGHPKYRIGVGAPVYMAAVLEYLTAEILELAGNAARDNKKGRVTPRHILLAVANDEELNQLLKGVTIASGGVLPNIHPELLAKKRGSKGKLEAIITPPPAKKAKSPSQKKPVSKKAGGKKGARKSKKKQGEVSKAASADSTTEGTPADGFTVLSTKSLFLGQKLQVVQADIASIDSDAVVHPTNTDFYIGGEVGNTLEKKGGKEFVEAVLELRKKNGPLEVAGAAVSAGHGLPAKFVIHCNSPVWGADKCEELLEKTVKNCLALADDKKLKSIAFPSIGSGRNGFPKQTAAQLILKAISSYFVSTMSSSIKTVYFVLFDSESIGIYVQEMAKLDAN
UniProt Q9H5H4: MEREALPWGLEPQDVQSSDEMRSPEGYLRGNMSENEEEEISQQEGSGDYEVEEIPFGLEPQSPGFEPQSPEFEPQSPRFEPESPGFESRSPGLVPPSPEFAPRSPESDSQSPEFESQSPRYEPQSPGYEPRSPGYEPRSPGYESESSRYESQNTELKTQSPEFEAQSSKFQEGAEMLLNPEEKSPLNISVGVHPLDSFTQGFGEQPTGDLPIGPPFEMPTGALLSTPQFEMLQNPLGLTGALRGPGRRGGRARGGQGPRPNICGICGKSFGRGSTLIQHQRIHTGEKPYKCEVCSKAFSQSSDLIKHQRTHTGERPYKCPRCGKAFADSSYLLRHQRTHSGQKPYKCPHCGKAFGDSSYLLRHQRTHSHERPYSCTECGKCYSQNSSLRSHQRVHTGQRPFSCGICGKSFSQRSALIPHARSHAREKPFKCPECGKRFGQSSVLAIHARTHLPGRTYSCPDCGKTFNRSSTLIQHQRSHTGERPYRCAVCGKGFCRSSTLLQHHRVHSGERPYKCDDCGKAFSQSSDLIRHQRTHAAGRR

Legend:
[1] = biological target: 2xHA DIDO3 without the IDR (C-terminal truncation) (UniProt Q9BTC0); experiment: co-IP; anti-HA co-immunoprecipitation of 2xHA DIDO3 full-length, C-terminal constructs and C-terminal truncations, western blot; performed once
[2] = biological target: 2xHA DIDO3 full-length (UniProt Q9BTC0); experiment: as above
[3] = biological target: DIDO3 (endogenous) (human (endogenous in HEK293T)) (UniProt Q9BTC0); experiment: co-sedimentation; whole-cell lysate of wild-type HEK293T on a 15-40% sucrose gradient (50 mM Tris-Cl pH 8, 150 mM NaCl, 1% Triton, 1 mM DTT), 16 h at 4 °C; fractions by western blot; performed once
[4] = biological target: FLAG-DIDO3 (UniProt Q9BTC0); experiment: co-IP; anti-FLAG M2 magnetic beads on lysates of HEK293T transfected with FLAG-DIDO constructs (150 mM NaCl, 0.1% Triton, benzonase), eluted with 3xFLAG peptide, western blot with antibodies against mass spectrometry hits; performed once

| Molecule | binding [1] | binding [2] | binding [3] | binding [4] |
| --- | --- | --- | --- | --- |
| PARP1 (from UniProt P09874 1-1014) (enzyme) | binds | binds | binds |  |
| PHD finger protein 3 (PHF3), endogenous (from UniProt Q92576 1-2039) | binds | binds | binds | binds |
| macroH2A.1 (from UniProt O75367 1-369) |  |  | binds |  |
| ZNF768 (from UniProt Q9H5H4 1-540) |  |  |  | binds |
| B1 |  |  |  | binds |
| B2 |  |  | binds |  |

Source: article PMC10689479
